Assay [1] concerns the target extracellular domain of human EphA2 (25-534) with a C-terminal HIS tag (R&D Systems, 3035-A2) (human) (UniProt P29317). Briefly: BLI in-tandem binning matrix on EphA2 ECD-His, competitor AB-010018.
Assay [2] shares this target. Briefly: BLI in-tandem binning matrix on EphA2 ECD-His, competitor AB-008873.

Chains of the proteins cited; added tags and fusions are not shown. Lines headed by an entry give the natural chain unless they say otherwise; changes in a name come on top. Residues count along the entry.
UniProt P29317: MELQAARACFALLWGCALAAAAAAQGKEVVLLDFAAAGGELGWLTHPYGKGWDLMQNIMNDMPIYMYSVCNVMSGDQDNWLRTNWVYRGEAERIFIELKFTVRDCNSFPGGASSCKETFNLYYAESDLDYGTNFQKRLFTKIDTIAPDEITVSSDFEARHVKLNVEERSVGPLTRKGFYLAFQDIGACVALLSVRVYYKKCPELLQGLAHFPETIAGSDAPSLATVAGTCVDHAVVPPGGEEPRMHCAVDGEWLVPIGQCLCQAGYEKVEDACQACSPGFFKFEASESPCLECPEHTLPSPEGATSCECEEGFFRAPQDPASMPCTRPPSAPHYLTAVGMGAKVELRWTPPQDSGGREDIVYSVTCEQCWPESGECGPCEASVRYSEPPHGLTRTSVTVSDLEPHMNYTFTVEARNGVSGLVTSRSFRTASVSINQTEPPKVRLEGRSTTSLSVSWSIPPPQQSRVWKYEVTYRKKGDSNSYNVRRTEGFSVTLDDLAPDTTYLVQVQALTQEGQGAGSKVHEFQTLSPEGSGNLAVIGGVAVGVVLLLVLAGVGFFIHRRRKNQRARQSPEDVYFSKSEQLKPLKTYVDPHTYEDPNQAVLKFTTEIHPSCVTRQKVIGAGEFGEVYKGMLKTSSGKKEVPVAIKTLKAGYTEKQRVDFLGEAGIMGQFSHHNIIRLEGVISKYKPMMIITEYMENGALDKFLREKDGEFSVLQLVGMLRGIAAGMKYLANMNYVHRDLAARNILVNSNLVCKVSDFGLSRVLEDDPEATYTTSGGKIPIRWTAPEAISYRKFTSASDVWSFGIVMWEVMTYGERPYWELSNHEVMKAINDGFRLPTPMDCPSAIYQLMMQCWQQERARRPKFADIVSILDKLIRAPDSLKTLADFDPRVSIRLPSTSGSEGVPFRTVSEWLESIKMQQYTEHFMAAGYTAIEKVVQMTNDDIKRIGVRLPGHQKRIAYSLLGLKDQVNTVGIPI
UniProt P20827, residues 19-182: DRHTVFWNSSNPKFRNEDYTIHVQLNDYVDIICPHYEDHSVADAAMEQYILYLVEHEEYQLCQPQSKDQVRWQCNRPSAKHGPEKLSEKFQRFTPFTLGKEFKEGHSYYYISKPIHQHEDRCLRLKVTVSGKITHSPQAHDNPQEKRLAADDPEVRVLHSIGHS

No constants are given. Whether binding was seen depends on the method and setting. Some entries that bind do so weakly or less than the wild type.

As for “EphrinA1 fused to Fc (Acro, EF1-H5251) (from UniProt P20827 19-182) (Fc fusion)”, the binding entry in assay [1] and in assay [2] was “binds” in each case.

For the origin of these results see patent US20250051464A1.
